The values that follow come from PubChem BioAssay AID330 (DTP/NCI, 2004).

The list shows only some results of the screen, not a fair sample: it gathers tests that were run many times, whatever their T/C, doses with no T/C, and many T/C values between a quarter and a half above the control. Further doses and runs are listed elsewhere. T/C is the treated group as % of the vehicle group. Some entries give survivors of the animals treated and no T/C: the source holds a T/C of zero for them, seemingly a mark for toxic or unscored doses. Some survivor counts are full or nearly so, which does not show that the dose was tolerated: the source hardly ever lists a survival T/C far under the control, and the zero likely stands for such cases as well. Survivors were counted at the toxicity check, usually on the fifth day, unless a day is given; later deaths do not show. Schedule codes are those of the source, taken here to give the interval after Q, in days (D) or hours (H), and the number of doses after X. Some entries were tested several times; the results are listed from low to high. For survival time, the PubChem record calls one and a half times the control and up active, and a quarter to a half above the control has no call in these data; cut-offs in other NCI protocols can differ.

The assay relates to P388 leukemia ip, CD2F1 mice, survival T/C. Nature of the assay: NCI In Vivo Anticancer Drug Screen. Data for tumor model P388 Leukemia (intraperitoneal) in CD2F1 (CDF1) mice. To be noted: T/C endpoint: median survival time, higher T/C = longer survival.
The mark [1] stands for this setting: dose: 200.0 mg/kg/injection, schedule: Q01DX009 (ip), vehicle: saline with Tween-80.
Setting [2] is: dose: 240.0 mg/kg/injection, schedule: Q01DX005 (ip), vehicle: saline with Tween-80.
[3] abbreviates: dose: 50.0 mg/kg/injection, schedule: Q01DX009 (ip), vehicle: Klucel (hydroxypropylcellulose) (HPC).
Where [4] appears, read: dose: 200.0 mg/kg/injection, schedule: Q01DX009 (ip), vehicle: Klucel (hydroxypropylcellulose) (HPC).
[5] abbreviates: dose: 200.0 mg/kg/injection, schedule: Q01DX005 (ip), vehicle: saline with Tween-80.
[6] abbreviates: dose: 400.0 mg/kg/injection, schedule: Q04DX003 (ip), vehicle: saline with Tween-80.
[7] abbreviates: dose: 6.25 mg/kg/injection, schedule: Q04DX003 (ip), vehicle: saline with Tween-80.
Where [8] appears, read: dose: 12.5 mg/kg/injection, schedule: Q04DX003 (ip), vehicle: saline with Tween-80.
Where [9] appears, read: dose: 25.0 mg/kg/injection, schedule: Q04DX003 (ip), vehicle: saline with Tween-80.
[10] abbreviates: dose: 100.0 mg/kg/injection, schedule: Q04DX003 (ip), vehicle: saline with Tween-80.
The mark [11] stands for this setting: dose: 200.0 mg/kg/injection, schedule: Q04DX003 (ip), vehicle: saline with Tween-80.
The mark [12] stands for this setting: dose: 200.0 mg/kg/injection, schedule: Q01DX009 (ip), vehicle: saline.
[13] abbreviates: dose: 120.0 mg/kg/injection, schedule: Q01DX005 (ip), vehicle: saline with Tween-80.

As for `C=C1CC2(CCCC(=O)C2)OC1=O` (configuration not stated), the survivor count runs as follows: (dose: 100.0 mg/kg/injection, schedule: Q01DX005 (ip), vehicle: Klucel (hydroxypropylcellulose) (HPC)) 3 of 5; (dose: 200.0 mg/kg/injection, schedule: Q01DX005 (ip), vehicle: Klucel (hydroxypropylcellulose) (HPC)) 3 of 5.

On to `CC(C)(C)N=C(c1ccccc1)N1CCCCC1`, for which the survivor count under setting [1] is 0 of 6.

Regarding `NNC(=O)COc1ccc(Br)cc1Br`, the survivor count under setting [2] is given as 4 of 6.

Regarding `COc1c(C)n(CCCCCCn2ccc(=O)c(OC)c2C)ccc1=O`, the survivor count (dose: 400.0 mg/kg/injection, schedule: Q01DX005 (ip), vehicle: Klucel (hydroxypropylcellulose) (HPC)) is recorded as 2 of 6.

Turning to `Cn1c2nc(-[n+]3ccc(-c4ccccc4)cc3)nc-2c([O-])n(C)c1=O`, where the note is “dose: 400.0 mg/kg/injection, schedule: Q04DX003 (ip), vehicle: saline”, the survivor count was 6 of 6.

`CSc1cccc(NC(=O)OCCOc2ccc(-c3ccccc3)cc2)c1`: the survivor count is 6 of 6 under setting [3] and 6 of 6 under setting [4].

In the case of `O=c1[nH]c2ccc(Br)cc2c(=O)o1`, under “dose: 50.0 mg/kg/injection, schedule: Q01DX001 (ip), vehicle: other”, the T/C is 140 % of control.

Consider `CCCCCC(CN(C)C)C(=O)/C=C/c1ccc(F)cc1` (configuration not stated), for which the survivor count under setting [5] is recorded as 0 of 6.

On to `CC1=NCCN=C(C)C1N=Nc1ccccc1`, for which the survivor count under setting [6] is 0 of 6.

Take `O=C(NCCCCCCCCCCNC(=O)N1CC1)N1CC1`: the T/C was 129 % of control (dose: 1.0 mg/kg/injection, schedule: Q04DX003 (ip), vehicle: saline with Tween-80); 138 % of control (dose: 1.56 mg/kg/injection, schedule: Q04DX003 (ip), vehicle: saline with Tween-80); 125 % of control (dose: 3.13 mg/kg/injection, schedule: Q01DX009 (ip), vehicle: saline with Tween-80); 133 % of control under setting [7]. Also, the survivor count reads like this: under setting [8], 6 of 6; under setting [9], 3 of 6.

In the case of `CCN1C=C/C(=C/c2cc3scc(-c4ccccc4)[n+]3c3ccccc23)c2ccccc21`, the survivor count is 0 of 6 (dose: 0.65 mg/kg/injection, schedule: Q04DX003 (ip), vehicle: saline sonified); 0 of 6 (dose: 1.3 mg/kg/injection, schedule: Q04DX003 (ip), vehicle: saline sonified); 0 of 6 under setting [7]; 0 of 6 under setting [8]; 0 of 6 under setting [9]; 0 of 6 under setting [10]. The survivor count reads like this: under setting [11], 0 of 6; under setting [6], 0 of 6.

For `C=C1C(NC)CCC23CC24CCC2(C)C(C(C)=O)C(O)CC2(C)C4CCC13` (configuration not stated), the survivor count was 2 of 6 under setting [1] and 0 of 6 (dose: 400.0 mg/kg/injection, schedule: Q01DX009 (ip), vehicle: saline with Tween-80).

With `O=C(CNC1=NCCN1)Nc1ccc(NC(=O)c2ccc(C(=O)Nc3ccc(NC(=O)CNC4=NCCN4)cc3)cc2)cc1`, the T/C by setting is: (dose: 100.0 mg/kg/injection, schedule: Q01DX005 (ip), vehicle: saline with Tween-80) 133 and 138 % of control; under setting [5], 144 % of control.

For the compound `C[CH2][Sn]([CH2]C(=O)OC)([CH2]C(=O)OC)[c]1ccccc1`, the T/C is 139 % of control (dose: 12.5 mg/kg/injection, schedule: Q01DX005 (ip), vehicle: saline) and 143 % of control (dose: 50.0 mg/kg/injection, schedule: Q01DX005 (ip), vehicle: saline). Besides, the survivor count runs as follows: (dose: 100.0 mg/kg/injection, schedule: Q01DX005 (ip), vehicle: saline) 0 of 6; (dose: 200.0 mg/kg/injection, schedule: Q01DX005 (ip), vehicle: saline) 0 of 6.

Regarding `COc1cc2c(cc1OC)C[N+]1(C)CCc3cc(OC)c(OC)cc3C1C2` (configuration not stated), the survivor count (dose: 40.0 mg/kg/injection, schedule: Q01DX009 (ip), vehicle: saline) is 2 of 6.

Take `COc1cc(C2=N/C(=C\c3ccccc3O)C(=O)O2)cc(OC)c1OC`: the survivor count under setting [12] is given as 6 of 6.

As for `CC(=O)O[C@H]1[C@@H]2c3c(ccc4c(=O)cc(-c5ccccc5)oc34)O[C@@H]2OC1(C)C`, the survivor count (dose: 7.8 mg/kg/injection, schedule: Q01DX005 (ip), vehicle: Klucel (hydroxypropylcellulose) (HPC)) is listed as 6 of 6.

In the case of `CC1(C)N=C(N)N=C(N)N1c1ccc(CCCCc2ccc(S(=O)(=O)F)cc2)cc1`, the T/C runs as follows: (dose: 8.0 mg/kg/injection, schedule: Q01DX009 (ip), vehicle: saline sonified) 138 % of control; (dose: 12.5 mg/kg/injection, schedule: Q01DX009 (ip), vehicle: saline with Tween-80) 140 % of control; (dose: 25.0 mg/kg/injection, schedule: Q01DX009 (ip), vehicle: saline with Tween-80) 136 % of control. The survivor count was 5 of 6 under setting [10] and 0 of 6 under setting [11].

As for `CCN(CC)CCNc1ccc(COC(C)=O)c2oc3ccccc3c(=O)c12`, the T/C (dose: 25.0 mg/kg/injection, schedule: Q01DX005 (ip), vehicle: saline with Tween-80) is 125 % of control. Where the note is “dose: 50.0 mg/kg/injection, schedule: Q01DX005 (ip), vehicle: saline with Tween-80”, the survivor count is listed as 6 of 6.

For the compound `O=C(/C=C/C(=O)Nc1ccc(F)cc1F)Nc1ccc(F)cc1F`, under setting [13], the survivor count is 6 of 6.

In the case of `c1ccc(C(NC2=NCCCCCC2)c2ccco2)cc1` (configuration not stated), the survivor count by setting is: (dose: 60.0 mg/kg/injection, schedule: Q01DX005 (ip), vehicle: saline with Tween-80) 0 of 6; under setting [13], 0 of 6; under setting [2], 0 of 6.

As for `NC(CS)=NCC1C2CC3CC(C2)CC1C3` (configuration not stated), the survivor count is 6 of 6 (dose: 6.25 mg/kg/injection, schedule: Q01DX009 (ip), vehicle: Klucel (hydroxypropylcellulose) (HPC)); 2 of 6 and 4 of 6 (dose: 12.5 mg/kg/injection, schedule: Q01DX009 (ip), vehicle: Klucel (hydroxypropylcellulose) (HPC)); 2 of 6 (dose: 25.0 mg/kg/injection, schedule: Q01DX009 (ip), vehicle: Klucel (hydroxypropylcellulose) (HPC)); 0 of 6 under setting [3].

`Cc1cc2c(c(C(C)(C)C)c1)OC(=O)/C2=C1/C(=O)Oc2c1cc(C)cc2C(C)(C)C`: the survivor count is 6 of 6 (dose: 15.0 mg/kg/injection, schedule: Q01DX005 (ip), vehicle: Klucel (hydroxypropylcellulose) (HPC)); 6 of 6 (dose: 30.0 mg/kg/injection, schedule: Q01DX005 (ip), vehicle: Klucel (hydroxypropylcellulose) (HPC)); 6 of 6 (dose: 60.0 mg/kg/injection, schedule: Q01DX005 (ip), vehicle: Klucel (hydroxypropylcellulose) (HPC)); 6 of 6 (dose: 120.0 mg/kg/injection, schedule: Q01DX005 (ip), vehicle: Klucel (hydroxypropylcellulose) (HPC)); 6 of 6 (dose: 240.0 mg/kg/injection, schedule: Q01DX005 (ip), vehicle: Klucel (hydroxypropylcellulose) (HPC)).

For the compound `CCO/C=C1\SC(=S)N(c2ccc(C(=O)O)cc2)C1=O`, the survivor count under setting [6] is reported as 3 of 6.

Turning to `OC(c1cc(-c2ccc(C(F)(F)F)cc2)nc(C(F)(F)F)c1)C1CCCCN1` (configuration not stated), the survivor count (dose: 50.0 mg/kg/injection, schedule: Q01DX009 (ip), vehicle: saline with Tween-80) is given as 5 of 6.

For the compound `O=C(Nc1ncc([N+](=O)[O-])s1)C(Cl)Cl`, the survivor count under setting [4] is on record as 3 of 6.

On to `Nc1ccccc1C(=O)Nc1ccc(Cl)cc1C(=O)O`, for which, under setting [12], the survivor count was 2 of 6.

As to `COc1cc(Br)cc(C(=O)O)c1OC`, the T/C (dose: 200.0 mg/kg/injection, schedule: Q01DX009 (ip), vehicle: other) was 126 % of control. For the same compound, the survivor count (dose: 400.0 mg/kg/injection, schedule: Q01DX009 (ip), vehicle: other) is recorded as 3 of 6.
